Where a chain is given by its changes, count along the chain named. Numbers in names are those of the source. Results are given in words; binding and its absence hold for the method and conditions named. Binding can be weak; no strength is given. Tags and fused reporters may be left off the sequences shown.

The values that follow come from PMC8103106.

In this assay the target is MBP-AP-3 (appendage domain of rat AP-3 delta fused to MBP) (rat). Nature of the assay: pull-down; 50 µg MBP-AP-3 loaded on amylose resin for 30 min at 4°C; varying amounts of His-VPS41 incubated with the resin; bound protein read by quantitative fluorescence immunoblotting; both purified.

B1: HIS-6 VPS41^WT (His-hVPS41, recombinant) (protein, UniProt P49754-1 1-854)
chain: MAEAEEQETGSLEESTDESEEEESEEEPKLKYERLSNGVTEILQKDAASCMTVHDKFLALGTHYGKVYLLDVQGNITQKFDVSPVKINQISLDESGEHMGVCSEDGKVQVFGLYSGEEFHETFDCPIKIIAVHPHFVRSSCKQFVTGGKKLLLFERSWMNRWKSAVLHEGEGNIRSVKWRGHLIAWANNMGVKIFDIISKQRITNVPRDDISLRPDMYPCSLCWKDNVTLIIGWGTSVKVCSVKERHASEMRDLPSRYVEIVSQFETEFYISGLAPLCDQLVVLSYVKEISEKTEREYCARPRLDIIQPLSETCEEISSDALTVRGFQENECRDYHLEYSEGESLFYIVSPRDVVVAKERDQDDHIDWLLEKKKYEEALMAAEISQKNIKRHKILDIGLAYINHLVERGDYDIAARKCQKILGKNAALWEYEVYKFKEIGQLKAISPYLPRGDPVLKPLIYEMILHEFLESDYEGFATLIREWPGDLYNNSVIVQAVRDHLKKDSQNKTLLKTLAELYTYDKNYGNALEIYLTLRHKDVFQLIHKHNLFSSIKDKIVLLMDFDSEKAVDMLLDNEDKISIKKVVEELEDRPELQHVYLHKLFKRDHHKGQRYHEKQISLYAEYDRPNLLPFLRDSTHCPLEKALEICQQRNFVEETVYLLSRMGNSRSALKMIMEELHDVDKAIEFAKEQDDGELWEDLILYSIDKPPFITGLLNNIGTHVDPILLIHRIKEGMEIPNLRDSLVKILQDYNLQILLREGCKKILVADSLSLLKKMHRTQMKGVLVDEENICESCLSPILPSDAAKPFSVVVFHCRHMFHKECLPMPSMNSAAQFCNICSAKNRGPGSAILEMKK
Consider B1, for which the binding result is given as “binds”.

B2: HIS-6 VPS41^S285P (His-hVPS41 S285P, recombinant) (protein, UniProt P49754-1 1-854)
chain: B1 chain with S285P
Regarding B2, the binding entry is “binds”.
